{
  "sequences": {"note": "Amino acid sequences for entries named in this document (tags omitted). A change or cut given only in a name is not applied to a line headed by its entry.", "UniProt O75531": "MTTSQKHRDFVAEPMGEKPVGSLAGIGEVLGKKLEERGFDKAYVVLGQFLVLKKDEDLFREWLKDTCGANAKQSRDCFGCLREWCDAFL"},
  "source": "paper PMC4266902",
  "about": "“Néstor-Guillermo Progeria Syndrome: a biochemical insight into Barrier-to-Autointegration Factor 1, alanine 12 threonine mutation” (BMC Molecular Biology, 2014)",
  "target": "T1, BANF1 A12T (UniProt O75531)",
  "T1 sequence (looked up, limits assumed)": "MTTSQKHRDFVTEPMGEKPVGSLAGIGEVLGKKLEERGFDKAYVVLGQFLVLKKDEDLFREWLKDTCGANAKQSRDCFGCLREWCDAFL",
  "test": "EMSA",
  "conditions": "0-1 uM protein, 10 nM DNA, 30 min 4 C, marked defect vs WT; 10 mM Tris-HCl pH 7.0, 20 mM NaCl, 100 ng/mL BSA, 5 mM DTT, 30 min at 4 C; 7% PAGE 0.5x TBE at 4 C (short DNA) or 0.6% agarose 1x TBE (plasmid); recombinant protein; protein details: N-terminal His6; label: 5'-FAM on strand 1",
  "note": "For at least one entry, the source does not settle the construct or the ends of the probe. A weaker result is weaker than the reference pair of the same experiment. Where a protein sequence is shown, tags need not be part of it.",
  "data": [
    {"sequence": "CTCTCCCTTCGCTCCTTTCCTCT (double strand) [FAM-labelled short dsDNA]", "values": [
      {"measurement": "binding result", "value": "binds more weakly"}
    ]}
  ]
}
